# Results from the supplement of paper PMC10849652.
# The chains behind the UniProt entries cited, without tags or fusion partners. Where a name states a change or a piece, a line headed by the entry shows the natural chain unless it says otherwise.
# UniProt P42680: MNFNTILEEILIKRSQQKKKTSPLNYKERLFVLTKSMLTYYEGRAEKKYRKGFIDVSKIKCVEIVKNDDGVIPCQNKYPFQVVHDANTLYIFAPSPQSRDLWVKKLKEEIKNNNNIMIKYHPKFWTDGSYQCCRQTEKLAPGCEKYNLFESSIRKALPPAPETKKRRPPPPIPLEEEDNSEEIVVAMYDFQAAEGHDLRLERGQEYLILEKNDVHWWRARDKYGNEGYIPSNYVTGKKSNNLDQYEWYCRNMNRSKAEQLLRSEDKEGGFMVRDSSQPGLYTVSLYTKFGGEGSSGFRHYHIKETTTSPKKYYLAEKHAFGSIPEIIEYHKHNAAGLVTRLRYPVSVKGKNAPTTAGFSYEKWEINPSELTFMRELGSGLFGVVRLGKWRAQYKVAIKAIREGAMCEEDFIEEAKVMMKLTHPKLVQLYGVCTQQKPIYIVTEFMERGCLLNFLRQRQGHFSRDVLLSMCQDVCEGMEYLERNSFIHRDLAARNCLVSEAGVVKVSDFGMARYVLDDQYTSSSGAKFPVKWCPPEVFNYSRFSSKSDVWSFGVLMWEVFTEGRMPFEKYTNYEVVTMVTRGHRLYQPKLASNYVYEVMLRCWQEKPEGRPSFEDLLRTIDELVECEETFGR
# UniProt Q9NVR7: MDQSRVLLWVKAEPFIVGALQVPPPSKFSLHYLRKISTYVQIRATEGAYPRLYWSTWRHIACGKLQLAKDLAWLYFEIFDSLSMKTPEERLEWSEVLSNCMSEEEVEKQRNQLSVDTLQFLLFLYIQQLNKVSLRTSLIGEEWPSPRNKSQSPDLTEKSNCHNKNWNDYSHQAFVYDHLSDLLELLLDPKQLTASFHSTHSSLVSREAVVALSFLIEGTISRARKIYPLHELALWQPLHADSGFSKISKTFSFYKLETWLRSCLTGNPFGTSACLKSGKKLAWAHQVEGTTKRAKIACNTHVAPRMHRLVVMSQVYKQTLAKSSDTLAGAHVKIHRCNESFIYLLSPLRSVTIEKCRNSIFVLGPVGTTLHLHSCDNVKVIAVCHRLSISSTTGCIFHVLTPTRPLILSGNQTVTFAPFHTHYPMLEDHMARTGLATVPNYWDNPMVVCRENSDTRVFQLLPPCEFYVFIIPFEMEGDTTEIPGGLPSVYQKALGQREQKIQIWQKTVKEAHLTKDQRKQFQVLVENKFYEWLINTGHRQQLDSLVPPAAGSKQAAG
# UniProt Q8N4U5: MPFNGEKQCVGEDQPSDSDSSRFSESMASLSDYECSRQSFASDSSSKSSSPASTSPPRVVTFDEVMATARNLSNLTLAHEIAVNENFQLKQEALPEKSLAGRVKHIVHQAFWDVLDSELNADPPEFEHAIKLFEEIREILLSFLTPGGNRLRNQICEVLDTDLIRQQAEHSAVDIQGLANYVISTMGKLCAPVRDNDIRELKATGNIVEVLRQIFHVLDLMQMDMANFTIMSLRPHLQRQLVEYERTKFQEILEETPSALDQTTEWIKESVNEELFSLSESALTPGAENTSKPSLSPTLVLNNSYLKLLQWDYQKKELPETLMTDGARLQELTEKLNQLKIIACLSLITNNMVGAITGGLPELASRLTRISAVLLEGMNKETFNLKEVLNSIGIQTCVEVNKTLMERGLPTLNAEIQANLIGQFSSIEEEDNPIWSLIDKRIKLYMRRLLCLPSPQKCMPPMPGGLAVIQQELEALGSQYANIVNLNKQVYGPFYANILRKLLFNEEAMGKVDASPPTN
# UniProt Q3MII6: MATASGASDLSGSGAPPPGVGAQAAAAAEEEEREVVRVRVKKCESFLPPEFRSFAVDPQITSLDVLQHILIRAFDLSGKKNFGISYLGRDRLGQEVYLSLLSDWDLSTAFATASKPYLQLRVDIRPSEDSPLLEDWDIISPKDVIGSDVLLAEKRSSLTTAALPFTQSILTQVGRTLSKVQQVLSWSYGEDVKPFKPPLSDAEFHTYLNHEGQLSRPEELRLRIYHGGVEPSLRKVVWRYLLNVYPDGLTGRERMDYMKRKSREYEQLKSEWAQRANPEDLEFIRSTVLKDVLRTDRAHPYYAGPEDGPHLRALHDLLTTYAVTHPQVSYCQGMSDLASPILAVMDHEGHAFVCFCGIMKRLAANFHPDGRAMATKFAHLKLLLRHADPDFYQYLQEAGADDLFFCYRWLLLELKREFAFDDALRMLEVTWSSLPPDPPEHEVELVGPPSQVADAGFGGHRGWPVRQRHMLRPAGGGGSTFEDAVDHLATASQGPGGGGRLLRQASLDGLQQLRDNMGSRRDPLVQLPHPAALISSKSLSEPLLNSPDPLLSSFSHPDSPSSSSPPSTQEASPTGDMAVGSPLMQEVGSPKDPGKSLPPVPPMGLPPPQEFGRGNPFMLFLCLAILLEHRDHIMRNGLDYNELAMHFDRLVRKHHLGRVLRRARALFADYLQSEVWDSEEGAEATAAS
# UniProt Q96QE5: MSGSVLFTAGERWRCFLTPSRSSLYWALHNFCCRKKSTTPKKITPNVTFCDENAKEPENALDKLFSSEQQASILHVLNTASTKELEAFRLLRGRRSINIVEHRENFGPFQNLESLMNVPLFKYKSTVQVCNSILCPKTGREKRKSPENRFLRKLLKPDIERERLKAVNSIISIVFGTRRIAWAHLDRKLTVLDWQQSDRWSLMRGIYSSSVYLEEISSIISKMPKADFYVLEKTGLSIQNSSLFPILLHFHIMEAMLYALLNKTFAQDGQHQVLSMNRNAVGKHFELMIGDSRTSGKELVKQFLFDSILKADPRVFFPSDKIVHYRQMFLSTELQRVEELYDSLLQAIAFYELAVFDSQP
# UniProt P54274: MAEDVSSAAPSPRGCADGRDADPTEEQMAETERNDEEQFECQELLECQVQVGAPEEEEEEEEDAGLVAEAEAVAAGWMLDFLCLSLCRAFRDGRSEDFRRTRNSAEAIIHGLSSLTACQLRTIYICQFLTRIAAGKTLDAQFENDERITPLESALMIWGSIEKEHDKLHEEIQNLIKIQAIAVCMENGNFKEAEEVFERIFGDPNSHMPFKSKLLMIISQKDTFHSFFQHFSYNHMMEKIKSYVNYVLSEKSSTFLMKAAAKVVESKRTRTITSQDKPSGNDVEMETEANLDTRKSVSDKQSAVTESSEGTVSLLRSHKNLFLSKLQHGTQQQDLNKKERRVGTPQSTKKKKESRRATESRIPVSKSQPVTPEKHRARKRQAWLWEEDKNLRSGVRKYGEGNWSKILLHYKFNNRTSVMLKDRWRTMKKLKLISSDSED
# Some of the results follow.
# How the values were obtained:
# Assay in all cases: log2 fold change, soluble protein after heating vs DMSO (PISA); higher = thermal stabilisation; K562 lysate, 10 uM; active = over 0.2 and 3.5 SD of the protein, either way, in both replicates (recomputed)
# [1] = compound: CC1=C2C(=CC=C1)N=C(N(C2=O)C3=CC=CC=C3C)CN4C=NC5=C(N=CN=C54)N
# Summary of the method: (§1)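 Quantification was by TMTpro 16plex LC-MS/MS with equalised channel sums, applied to the supernatant after 21,000xg for 90 min. Samples were crude K562 extract at 1 mg/mL protein in PBS pH 7.4 with 1 mM MgCl2, treated with 10 μM compound for 30 min, heated for 3 min across 48°C-58°C, pooled and brought to 0.5% NP-40 at 4°C. Values are log-two fold changes in thermal stability relative to solvent controls, from duplicates.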
# [2] = compound: c1ccc([C@@H]2C[C@H]2NC2CCNCC2)cc1
# Summary of the method: as §1
# [3] = compound: Cc1sc2c(c1C)C(c1ccc(Cl)cc1)=N[C@@H](CC(=O)OC(C)(C)C)c1nnc(C)n1-2
# Summary of the method: as §1
Target,log2 fold change [1],log2 fold change [2],log2 fold change [3]
TEC (UniProt P42680),inactive: 0.114,–,–
TBCCD1 (UniProt Q9NVR7),–,inactive: -0.011,–
TCP11L2 (UniProt Q8N4U5),inactive: -0.012,inactive: 0.028,–
TBC1D25 (UniProt Q3MII6),inactive: 0.012,inactive: 0.186,inactive: -0.043
TEFM (UniProt Q96QE5),inactive: 0.128,inactive: 0.133,inactive: 0.023
TERF1 (UniProt P54274),inactive: -0.115,–,–
